Laboratory results as given in the supplement of paper PMC10338343.
± gives the standard deviation. Only a part is listed here, and it is no random draw. Many entries were measured with a wide error.

What follows are sequences tested on MIWI (PIWIL1) piRISC loaded with piRNA #1 (30 nt) (assay: pre-steady-state target cleavage rate (min^-1); MIWI and MILI are mouse PIWI proteins and EfPiwi is from a freshwater sponge; tags in brackets are library labels; higher = faster piRNA-guided slicing of the target). Conditions: guide: piRNA #1 5'p-UGAGGUAGUAGGUUGUAUAGUAUCCAGAGG; auxiliary factor: 500 nM mouse GTSF1.
How it was run: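 The method was Cleave-'n-Seq, in which uncleaved targets from a transcribed, DNA-blocked target RNA library were sequenced after exposure to active affinity-purified piRISC carrying one synthetic guide, with or without GTSF1 partner protein. Reactions contained 0.1 nM library, 1 nM piRISC and, where present, 500 nM GTSF1 in HEPES–potassium acetate buffer at 33 °C for 0–8 or 0–960 min. Reads were normalised to depth and to weakly complementary targets, three trials were pooled, and k3 was capped at 0.0001 min^-1. The pre-steady-state cleavage rate came from a burst-and-steady-state fit.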

Row | Sequence | pre-steady-state target cleavage rate
1 | GGAGACCUUACUAAUGAACCUACUACCUCA | 0.00045 ± 0.0055
2 | CCUCAGGAUACUAUACAACCUACUACCUCA | 1.98 ± 0.12
3 | GGAGACGAUACAAUACAACCUACUACCUCA | 1.29 ± 0.097
4 | GCUCUGGAUACUAUACACACCUACUACCUCA | 0.00453 ± 0.0047
5 | GGACUAGAUACUAUACAACCUACUACCUCA | 1.77 ± 0.1
6 | GGUCUGGAUACUAUACAACUUACUACCUCA | 0.481 ± 0.028
7 | GGAGACCUAACAAUACAACGUACUACCUCA | 0.0017 ± 0.0063
8 | GGAGACCUAACUAUACAACCUACUUGGUCA | 0.00154 ± 0.0084
9 | GGAGACCUAUGAUAUCAACCUACUUACCUCA | 0.000291 ± 0.0077
10 | GGUCUGGAUACUAUUCAACCUACUACCACA | 0.506 ± 0.045
11 | GGAGACCUAUGAUAGCAACCUACUACCUCA | 0.000286 ± 0.0082
12 | GGAGACCUUACUAUACAACCAUACUACCUCA | 0.00061 ± 0.0088
13 | GGAGACCUAUGAUAACAAGCUACUACCUGA | 0.000257 ± 0.0098
14 | GGUGUGGUUACUAUACAACCUACUACCUCA | 1.54 ± 0.097
15 | GGAGACCUAUGAUAUGACCUACUACCUCA | 0.000341 ± 0.0078
16 | GGGCUGGAUACUAUACAACCUACUACCUCA | 1.9 ± 0.12
17 | GGAGAGGAUACUAUACAACCUACACCUCA | 0.00119 ± 0.0063
18 | CCUCUGGAUACUAUACAACCUACUACCCUCA | 1.38 ± 0.097
19 | GCUCUGCAUUCUAUACAACCUACUACCUCA | 1.65 ± 0.11
20 | CCUGUGGAUACUAUACAACCUACAACCUCA | 0.383 ± 0.043

Row | Sequence | pre-steady-state target cleavage rate
21 | GCUCUGCAUACUAUACAACCUACUACGUCA | 1.24 ± 0.086
22 | GGACUGGAUACUAUACAACCUACUCCUCA | 0.00205 ± 0.0044
23 | GGACUGGAUACUAUACAACCUAGUUCCUCA | 0.000729 ± 0.0058
24 | GGUCUGGAUACUAUACAACCUACUAGGAGA [g6:g28:cont:t1A] | 0.000205 ± 0.016
25 | GCUCUCCAUACUAUACAACCUACUACCUCA | 2.13 ± 0.13
26 | GGAGUGGAUACUAUACAACCUACACCUCA | 0.000502 ± 0.0064
27 | CCUCUGGAUACUAUACAACCUACUUCCACA | 0.337 ± 0.05
28 | GGAGACCUAUGAUAUGAACCAACUACGUCA | 0.000102 ± 0.03
29 | GGAGACCAUACUAUACAACCUACUACCUACA | 1.77 ± 0.18
30 | GGACAGGAUACUAAACAACCUACUACCUCA | 1.64 ± 0.11
31 | GGUCUGGAAUACUAUACAACCUACUACCUCA | 1.83 ± 0.11
32 | GGAGACCUAUGAAUACUACCUACUACCACA | 0.000179 ± 0.017
33 | GGUCAGGAUACUAUUCAACCUACUACCUCA | 1.79 ± 0.1
34 | GGAGACCUAUGAUAUGUUGCUACUGACCUCA | 0.000103 ± 0.028
35 | GGAGACCUAUGACUACAACCUACUACCUCA | 0.00138 ± 0.0032
36 | GGACUGGAUACUAUACAACCGUACUACCUCA | 0.000541 ± 0.014
37 | GGUCUAGAUACUAUACAACCUACUACCUCA | 1.81 ± 0.11
38 | GGAGACCUAUGAAUACUACCUACUAGCUCA | 0.000134 ± 0.013
39 | GGUCUGAUACUAUACAACCUACUACCUCA | 1.79 ± 0.1
40 | GGAGACCUAUGAUAACAACCUACUUCCUCA | 0.000277 ± 0.0075

Eleven entries from above, tab-delimited.
Row	Sequence	pre-steady-state target cleavage rate
12	GGAGACCUUACUAUACAACCAUACUACCUCA	0.00061 ± 0.0088
13	GGAGACCUAUGAUAACAAGCUACUACCUGA	0.000257 ± 0.0098
14	GGUGUGGUUACUAUACAACCUACUACCUCA	1.54 ± 0.097
15	GGAGACCUAUGAUAUGACCUACUACCUCA	0.000341 ± 0.0078
16	GGGCUGGAUACUAUACAACCUACUACCUCA	1.9 ± 0.12
17	GGAGAGGAUACUAUACAACCUACACCUCA	0.00119 ± 0.0063
18	CCUCUGGAUACUAUACAACCUACUACCCUCA	1.38 ± 0.097
19	GCUCUGCAUUCUAUACAACCUACUACCUCA	1.65 ± 0.11
20	CCUGUGGAUACUAUACAACCUACAACCUCA	0.383 ± 0.043
21	GCUCUGCAUACUAUACAACCUACUACGUCA	1.24 ± 0.086
22	GGACUGGAUACUAUACAACCUACUCCUCA	0.00205 ± 0.0044
